The assay relates to HCoV-229E. On the set-up: species or system Huh-7; HTS, protection from HCoV-229E induced cell death, luminescent cell viability (CellCounting-Lite 2.0), inhibition rate. The settings on record: 24 h post infection, 1 h compound pre-incubation, 10 µM, inhibitor.

Structures can show the parent of a compound that is named as a salt. Where two headings read alike, the source gives them in different places. The whole screen tested about 3,300 compounds, of which about 95 (3%) showed an effect of 50% or more. This is one part of the list.

Turning to `C=CCC(C)C(=O)O` (stereo not shown) [2-Methyl-4-pentenoic Acid], the “229E Inhibition rate” value was 10.3%.

Regarding `CCOC(=O)CC(=O)C(C)(C)C` [Ethyl pivaloylacetate], the “229E Inhibition rate” value is 42.2%.

`C[C@H](CO)C1=C(O)C(=O)c2c(ccc3c2CCCC3(C)C)C1=O` [Neocryptotanshinone]: the “229E Inhibition rate” value was determined as 7.2%.

Consider `C/C=C/c1ccc(OC(C)=O)c(OC)c1` [Isoeugenol acetate], for which the “229E Inhibition rate” value is given as 8.4%.

For the molecule `C=C(NC(=O)c1csc(-c2nc3c(cc2O)-c2nc(cs2)C(=O)N[C@@H]([C@@H](C)O)C(=O)N/C(=C/C)c2nc(cs2)C(=O)N[C@H]2C[C@H](O)C(=O)OCc4cccc5[nH]c(c(C)c45)C(=O)SC[C@H](NC(=O)c4csc2n4)c2nc-3cs2)n1)C(N)=O` [Nosiheptide], the “229E Inhibition rate” value was 29.4%.

On to `O=C(O)Cc1cccc2ccccc12` [1-Naphthaleneacetic acid], for which the “229E Inhibition rate” value is listed as 18.6%.

In the case of `NC[C@@H]1O[C@H](O[C@H]2[C@@H](O)[C@H](O[C@@H]3[C@@H](O)[C@H](N)C[C@H](N)[C@H]3O[C@H]3O[C@H](CN)[C@@H](O)[C@H](O)[C@H]3N)O[C@@H]2CO)[C@H](N)[C@@H](O)[C@@H]1O` [Neomycin (sulfate)], the “229E Inhibition rate” value is 9.1%.

As to `C/C1=C/CC[C@H](C)C(=O)C[C@@H](C(C)C)C(=O)C1` [Curdione], the “229E Inhibition rate” value was determined as 11.6%.

In the case of `NC(=O)c1ccc[n+]([C@@H]2O[C@H](CO)[C@@H](O)[C@H]2O)c1` [Nicotinamide riboside (chloride)], the “229E Inhibition rate” value was determined as 18.1%.

With `NC(CCCC(=O)O)C(=O)O` (stereo not shown) [Aminoadipic acid], the “229E Inhibition rate” value came to 8%.

Turning to `O=C([O-])c1ccc[n+]([C@@H]2O[C@H](CO)[C@@H](O)[C@H]2O)c1` [Nicotinic acid riboside], the “229E Inhibition rate” value was 16.3%.

Take `CC(O)(CC(=O)O)CC(=O)O` [Meglutol]: the “229E Inhibition rate” value was 20.1%.

Turning to `CC(/C=C/C=C(\C)C(=O)O[C@@H]1O[C@H](CO[C@@H]2O[C@H](CO)[C@@H](O)[C@H](O)[C@H]2O)[C@@H](O)[C@H](O)[C@H]1O)=C\C=C\C=C(C)\C=C\C=C(/C)C(=O)O[C@@H]1O[C@H](CO[C@@H]2O[C@H](CO)[C@@H](O)[C@H](O)[C@H]2O)[C@@H](O)[C@H](O)[C@H]1O` [Crocin], the “229E Inhibition rate” value is on record as 34.4%.

Consider `CC1CCC(C(C)C)C(O)C1` (racemic) [DL-Menthol], for which the “229E Inhibition rate” value stood at 12.1%.

With `COc1cc(O)c(C(=O)/C=C/c2ccccc2)c(OC)c1` [Flavokawain B], the “229E Inhibition rate” value is on record as 40.9%.

Regarding `C=C[C@H]1[C@H](O[C@@H]2O[C@H](CO)[C@@H](O)[C@H](O)[C@H]2O)OC=C2C(=O)OCC[C@H]21` [Sweroside], the “229E Inhibition rate” value was 9.8%.

As to `C[C@@]12C[C@@]3(O)O[C@@H](O1)[C@]1(COC(=O)c4ccccc4)[C@H]3C[C@@]12O[C@@H]1O[C@H](COC(=O)c2ccccc2)[C@@H](O)[C@H](O)[C@H]1O` [Benzoylpaeoniflorin], the “229E Inhibition rate” value is 4.9%.

For `COc1ccc2c(c1OC)C(OC)N(C)c1c-2ccc2cc3c(cc12)OCO3` (stereo not shown) [Angoline], the “229E Inhibition rate” value is 9%.

On to `Cc1ccc(-c2ccccc2)cc1` [4-Methylbiphenyl], for which the “229E Inhibition rate” value was 11.9%.

In the case of `O=C(O)[C@H](O)Cc1ccc(O)c(O)c1` [Danshensu], the “229E Inhibition rate” value is 12.4%.

On to `C[C@H]1[C@H](C)CC[C@]2(C(=O)O)CC[C@]3(C)C(=CC[C@@H]4[C@@]5(C)C[C@@H](O)[C@H](O)[C@@](C)(CO)[C@@H]5[C@H](O)C[C@]43C)[C@H]12` [Madecassic acid], for which the “229E Inhibition rate” value amounted to 5.1%.

For the molecule `C/C=C(/C)C(=O)O[C@H]1c2cc(OC)c(OC)c(OC)c2-c2c(cc3c(c2OC)OCO3)C[C@H](C)[C@]1(C)O` [Schisantherin B], the “229E Inhibition rate” value was 54.7%.

Turning to `CC(C)=CCc1c(-c2ccc(O)c3c2OC(C)(C)C=C3)oc2cc(O)cc(O)c2c1=O` [Kuwanon A], the “229E Inhibition rate” value is given as 3.8%.

On to `CC(C)=CCc1cc(C(=O)/C=C/c2ccc(O)cc2)c(O)cc1O` [Bavachalcone], for which the “229E Inhibition rate” value stood at 6.1%.

For the molecule `O=c1c2ccccc2[nH]c2ccccc12` [Acridone], the “229E Inhibition rate” value worked out at 9.8%.

As to `CN1CCN2c3ccccc3Cc3ccccc3C2C1` (stereo not shown) [Mianserin (hydrochloride)], the “229E Inhibition rate” value turned out to be 0%.

For the molecule `C[C@@H]1O[C@@H](O[C@H]2[C@H](Oc3cc(O)c4c(=O)cc(-c5ccc(O)c(O)c5)oc4c3)O[C@H](CO)[C@@H](O)[C@@H]2O)[C@H](O)[C@H](O)[C@H]1O` [Lonicerin], the “229E Inhibition rate” value is given as 10.5%.

Take `CCOC(=O)c1cc(O)c(O)c(O)c1` [Ethyl gallate]: the “229E Inhibition rate” value is listed as 25.5%.

Regarding `CC1(C)CC[C@]2(C(=O)O)CC[C@]3(C)C(=CC[C@@H]4[C@@]5(C)CC[C@H](O[C@@H]6O[C@H](C(=O)O)[C@@H](O)[C@H](O)[C@H]6O)C(C)(C)[C@@H]5CC[C@]43C)[C@@H]2C1` [Calenduloside E], the “229E Inhibition rate” value is listed as 12.9%.

For `O=c1[nH]c(=O)c2nc[nH]c2[nH]1` [Xanthine], the “229E Inhibition rate” value was 9.9%.

Take `C[N+](C)(C)[C@@H](Cc1c[nH]c2ccccc12)C(=O)[O-]` [Hypaphorine]: the “229E Inhibition rate” value is reported as 13.1%.

As for `CCCCCCCCCCCC(C)=O` [2-Tridecanone], the “229E Inhibition rate” value is 18.3%.

With `COc1cc(O)cc(OC)c1OC` [Antiarol], the “229E Inhibition rate” value worked out at 7.9%.

On to `COc1ccc(-c2oc3cc(O)cc(O)c3c(=O)c2O)cc1O` [Tamarixetin], for which the “229E Inhibition rate” value amounted to 20.9%.

Take `C[C@]12CC[C@@H](O)C[C@H]1CC[C@@H]1[C@@H]2[C@@H](O)C[C@@]2(C)[C@H]1CC[C@]2(O)C(=O)CO` [Tetrahydrocortisol]: the “229E Inhibition rate” value stood at 8.8%.

As for `CC(C)=CCC[C@](C)(O)[C@H]1CC[C@]2(C)[C@@H]1[C@H](O)C[C@@H]1[C@@]3(C)CC[C@H](O)C(C)(C)[C@@H]3[C@@H](O[C@@H]3O[C@H](CO)[C@@H](O)[C@H](O)[C@H]3O[C@@H]3O[C@@H](C)[C@H](O)[C@@H](O)[C@H]3O)C[C@]12C` [Ginsenoside Rg2], the “229E Inhibition rate” value is recorded as 54.2%.

As for `COC(=O)/C=C/C(=O)OC` [Dimethyl fumarate], the “229E Inhibition rate” value amounted to 44.6%.

Turning to `C[C@H](CCC(=O)NCC(=O)O)[C@H]1CC[C@H]2[C@@H]3[C@H](O)C[C@@H]4C[C@H](O)CC[C@]4(C)[C@H]3CC[C@]12C` [Glycochenodeoxycholic acid], the “229E Inhibition rate” value (229E Inhibition rate, 24 h) is 9.1%.

For the molecule `CCCCCCCCCCCCCCCc1cccc(O)c1C(=O)O` [Anacardic Acid], the “229E Inhibition rate” value is 20.1%.

As for `O=C(O)CCCCCC(=O)O` [Pimelic acid], the “229E Inhibition rate” value was determined as 40.5%.

For the molecule `C[C@H](CCC(=O)O)[C@H]1CC[C@H]2[C@@H]3C(=O)C[C@@H]4CC(=O)CC[C@]4(C)[C@H]3CC(=O)[C@]12C` [Dehydrocholate (sodium)], the “229E Inhibition rate” value is reported as 8.8%.

As for `C[C@@H]1O[C@@H](O[C@H]2[C@H](O[C@H]3CC[C@@]4(C)[C@@H](CC[C@]5(C)[C@@H]4CC=C4[C@@H]6CC(C)(C)CC[C@]6(C(=O)O)CC[C@]45C)[C@]3(C)CO)OC[C@H](O)[C@@H]2O)[C@H](O)[C@H](O)[C@H]1O` [alpha-Hederin], the “229E Inhibition rate” value is 2.9%.

For the molecule `CC[C@@H]1CN2CC[C@]3(C(=O)Nc4ccccc43)[C@@H]2C[C@@H]1/C(=C\OC)C(=O)OC` [Corynoxine B], the “229E Inhibition rate” value is reported as 0%.

In the case of `C[C@@H](O)CO` [(R)-(-)-1,2-Propanediol], the “229E Inhibition rate” value is recorded as 34.2%.

Turning to `C[C@H]1[C@H](C)CC[C@]2(C)CC[C@]3(C)C(=CC[C@@H]4[C@@]5(C)CC[C@@H](O)[C@](C)(C(=O)O)[C@@H]5CC[C@]43C)[C@H]12` [β-Boswellic acid], the “229E Inhibition rate” value turned out to be 22.5%.

As for `NCCP(=O)(O)O` [(2-Aminoethyl)phosphonic acid], the “229E Inhibition rate” value is listed as 11.2%.

As for `CCCCCCCCCCC/C=C\CCCCC(=O)O` [Petroselinic acid], the “229E Inhibition rate” value stood at 0%.

As to `C[C@H]1C(=O)CC[C@@H]2[C@]1(C)CC[C@H]1[C@@]2(C)CC[C@@]2(C)[C@@H]3CC(C)(C)CC[C@]3(C)CC[C@]12C` [Friedelin], the “229E Inhibition rate” value is on record as 14%.

Take `CCCCCCCC/C=C\CCCCCCCCCC(=O)O` [Gondoic acid]: the “229E Inhibition rate” value was 0%.

Consider `OCC(CO)N[C@H]1C[C@](O)(CO)[C@@H](O)[C@H](O)[C@H]1O` [Voglibose], for which the “229E Inhibition rate” value was 9.7%.

As for `C[C@@H]1O[C@@H](OC[C@H]2O[C@@H](Oc3c(-c4ccc(O)cc4)oc4cc(O)cc(O)c4c3=O)[C@H](O[C@@H]3O[C@H](CO)[C@H](O)[C@H](O)[C@H]3O)[C@@H](O)[C@@H]2O)[C@H](O)[C@H](O)[C@H]1O` [Camelliaside A], the “229E Inhibition rate” value was 0%.

As for `CC(C)=CCC[C@](C)(O[C@@H]1O[C@H](CO)[C@@H](O)[C@H](O)[C@H]1O)[C@H]1CC[C@]2(C)[C@@H]1[C@H](O)C[C@@H]1[C@@]3(C)CC[C@H](O[C@@H]4O[C@H](CO)[C@@H](O)[C@H](O)[C@H]4O[C@@H]4O[C@H](CO)[C@@H](O)[C@H](O)[C@H]4O)C(C)(C)[C@@H]3CC[C@]12C` [Ginsenoside Rd], the “229E Inhibition rate” value was 13.9%.

Consider `O=c1ncnc2n([C@H]3O[C@@H](CO)[C@H](O)[C@@H]3O)[nH]cc1-2` (stereo in doubt) [Allopurinol riboside], for which the “229E Inhibition rate” value is 19.3%.

Consider `Cc1cc2nc3c(=O)[nH]c(=O)nc-3n(C[C@H](O)[C@H](O)[C@H](O)COP(=O)(O)O)c2cc1C` [Riboflavin (phosphate sodium)], for which the “229E Inhibition rate” value is listed as 8.2%.

As to `COc1cc2c(cc1O)CC[n+]1cc3c(OC)c(OC)ccc3cc1-2` [Jatrorrhizine (hydroxide)], the “229E Inhibition rate” value (229E Inhibition rate, 24 h) stood at 11.3%.

Consider `O=C(O)c1cc(=O)c2ccccc2[nH]1` [Kynurenic acid], for which the “229E Inhibition rate” value came out at 21.5%.

In the case of `O=C1c2ccc(O)cc2OCC1c1ccc(O)cc1` (stereo not shown) [Dihydrodaidzein], the “229E Inhibition rate” value is on record as 16.3%.

With `O=C(O)C(=O)Cc1ccccc1` [Phenylpyruvic acid], the “229E Inhibition rate” value is recorded as 24%.

The values above are taken from PMC12431657, “Discovery and mechanistic insights of dibenzoylmethane as a broad spectrum inhibitor of coronavirus” (PLOS Pathogens, 2025).
